This test addresses CTLA4 (UniProt P16410). Kind of test: ELISA titration, OD405. On the technique in general: In an ELISA, binding on a coated surface is turned into a signal by an enzyme label.

Chains of the proteins cited; added tags and fusions are not shown. Residues count along the entry.
UniProt P16410, residues 37-162: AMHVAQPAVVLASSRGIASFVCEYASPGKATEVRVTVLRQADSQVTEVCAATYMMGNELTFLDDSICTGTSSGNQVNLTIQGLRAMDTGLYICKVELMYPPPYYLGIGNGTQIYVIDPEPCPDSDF

No constants are given. Whether binding was seen depends on the method and setting. Some binding calls cover weakened binding; strength is not graded here.

B1: 319-8-2 (antibody, V domains shown)
VH: QVQLVESGGDVVQPGGSLRLSCAASGVAFSDSGMHWVRQAPGKGLEWLAVIWYDGSKKHYAEAVKGRFTISRDNSKNMLYLQMNSLRVDDTAIYYCAKAHSQDDYWGQGTLVTVSS
VL: EIVLTQSPATLSLSPGERATLSCRATPSIDSYLAWYQQKSGQSPRLIIHDASIRATGIPDRFSGSGSGTDFTLTISSLEPEDFAVYYCQQRDSWPLAFGGGTKVEFK
With B1, the binding result is “binds”.
